Measured values from PubChem BioAssay AID720504 (National Center for Advancing Translational Sciences (NCATS), 2013).
Out of some 360,000 compounds screened, about 10,000 (2.8%) were called active. The inconclusive results got no clear call from the source; some entries with a clear call stand among them for comparison. The call rests on the fitted dose curve; in most records, active means well fitted inhibition curve with a large enough effect; inconclusive means small, poorly fitted or top-dose-only effect; inactive means flat fitted curve, though single readings scatter. Potencies of inconclusive entries are doubtful fits and often do not repeat.

The chains behind the UniProt entries cited, without tags or fusion partners.
UniProt P53350, whole entry, looked up: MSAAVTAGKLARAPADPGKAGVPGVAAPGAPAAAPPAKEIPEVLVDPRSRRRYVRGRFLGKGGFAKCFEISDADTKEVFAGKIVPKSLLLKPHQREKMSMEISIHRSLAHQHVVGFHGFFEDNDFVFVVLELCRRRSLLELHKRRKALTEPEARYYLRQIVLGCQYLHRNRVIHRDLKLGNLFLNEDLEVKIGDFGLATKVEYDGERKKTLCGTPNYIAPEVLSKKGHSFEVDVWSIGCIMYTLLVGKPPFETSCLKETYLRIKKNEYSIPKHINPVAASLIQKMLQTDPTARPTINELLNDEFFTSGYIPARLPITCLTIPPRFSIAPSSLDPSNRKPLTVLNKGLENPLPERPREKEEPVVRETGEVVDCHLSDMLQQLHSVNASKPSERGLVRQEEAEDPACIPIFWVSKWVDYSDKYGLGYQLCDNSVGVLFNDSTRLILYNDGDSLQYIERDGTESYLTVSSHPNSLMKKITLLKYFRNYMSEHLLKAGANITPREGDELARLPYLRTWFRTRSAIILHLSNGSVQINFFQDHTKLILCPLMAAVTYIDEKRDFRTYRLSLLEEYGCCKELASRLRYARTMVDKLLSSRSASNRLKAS

Target: Serine/threonine-protein kinase PLK1 (Homo sapiens) (UniProt P53350)
Assay: qHTS for Inhibitors of PLK1-PDB (polo-like kinase 1 - polo-box domain): Primary Screen; further: nearly all actives have a fitted effect of over 65% in size; on max response, negative = inhibition: series mostly up to about 57 µM
Conditions: Plk1 PBD binding of FITC phosphopeptide, fluorescence polarization
On the % scale 0 is the no-effect control and ±100 the full control effect; potency means the concentration at half of the fitted maximal effect.

SMILES | max response, negative = inhibition | Potency
COc1ccccc1OCc1cc(C(=O)NCCN2CCCC(O)C2)no1 (centres undefined) | inactive: -3.62% | –
S=c1[nH]nc(-c2cc(-c3ccccc3)n[nH]2)n1/N=C/c1c(Cl)cccc1Cl | inconclusive: -33.3% [inhibitor] | –
O=C(Nc1ccccc1C(=O)O)c1ccc2c(c1)C(=O)N(c1cccc([N+](=O)[O-])c1)C2=O | – | inconclusive: 26.7 µM [inhibitor, single point]
COC(=O)c1c(NC(=O)Cc2cccs2)sc2c1CCC(C)C2 (centres undefined) | – | active: 21.2 µM
Cc1ccc(S(=O)(=O)NCCC(=O)NC2CCC(C)CC2)cc1 (centres undefined) | inactive: -0.18% | –
COc1ccc(OC)c(C2CC(=O)N3CN(c4ccc(C)c(Cl)c4)CSC3=C2C#N)c1 (centres undefined) | – | inconclusive: 23.8 µM [inhibitor, single point]
COc1ccc2[nH]cc(C(=O)CCl)c2c1 | – | inconclusive: 29.9 µM [inhibitor, single point]
O=C(Nc1ccccc1)N1CCN(Cc2ccc3c(c2)OCO3)CC1 | – | inconclusive: 23.8 µM [inhibitor, single point]
CSCCC1(C(=O)O)NC(c2ccccc2O)C2C(=O)N(C(C)C)C(=O)C21 (centres undefined) | – | inconclusive: 26.7 µM [inhibitor, partial curve]
Cc1cc(C)c(S(=O)(=O)c2ccccc2)c(OC(=O)c2cc(F)c(F)cc2Cl)n1 | inconclusive: -32.3% [inhibitor] | –
O=C(NNC(=O)c1ccc(O)c(Cl)c1)c1cccc(S(=O)(=O)N2CCOCC2)c1 | inactive: -10.8% | –
CCS(=O)(=O)N1CCCC(C(=O)NCCc2ccccc2)C1 (centres undefined) | – | inconclusive: 37.7 µM [inhibitor, single point]
CCS(=O)(=O)c1cc([N+](=O)[O-])c(Sc2ccccc2NC(C)=O)s1 | – | inconclusive: 13.4 µM [inhibitor, partial curve]
O=C(Nc1ccc(F)cc1)C(=O)c1c(O)[nH]c2ccc([N+](=O)[O-])cc12 | – | inconclusive: 6.7 µM [inhibitor, full curve, poor fit]
O=S(=O)(Nc1nc2c(s1)CCCC2)c1ccc(F)cc1 | – | inconclusive: 13.4 µM [inhibitor, partial curve]
COc1ccccc1OC1=NS(=O)(=O)c2ccccc21 | inconclusive: -34.6% [inhibitor] | –
CCn1c(SCC(=O)N2CCN(c3ccccc3F)CC2)nnc1-c1ccoc1C | – | inconclusive: 26.7 µM [inhibitor, single point]
COc1ccc(C(=O)c2oc3ccc(OC)cc3c2N)cc1 | inactive: 6.44% | –
CC(=O)Nc1cccc(OC(=O)COc2ccc(Br)cc2)c1 | – | inconclusive: 29.9 µM [inhibitor, partial curve]
COc1ccccc1/C=C1\SC(=S)N(Nc2nc(C)cc(C)n2)C1=O | inactive: -8.66% | –
Cc1ccc(OCCn2c(=S)[nH]c3ccccc32)c(C(C)C)c1 | inactive: -5.96% | –
O=C(COc1ccccc1)Nc1nnc(S(=O)(=O)N2CCCC2)s1 | inactive: -14.8% | –
Cc1cc(C)c(NC(=S)NCC2CCN(C(C)c3ccccc3)C2)c(C)c1 (centres undefined) | – | active: 2.67 µM

SMILES | max response, negative = inhibition | Potency
Cc1ccccc1N1CCN(C2CCCN(C(=O)CCN3CCCCC3=O)C2)CC1 (centres undefined) | – | inconclusive: 26.7 µM [inhibitor, partial curve]
Cc1ccc(-c2ccc(CCC(=O)O)o2)cc1 | – | inconclusive: 29.9 µM [inhibitor, partial curve]
Cc1ccc(C(=O)N2CCCCCC2)cc1Br | – | active: 26.7 µM
Cc1cc(O)c2c(c1O)C(=O)[C@]13C(=C2O)C(=O)[C@@H]2[C@@H](O)[C@H]1[C@@H]1[C@H](O)[C@H]3C(=O)C3=C(O)c4c(O)cc(C)c(O)c4C(=O)[C@]312 | – | active: 29.9 µM
Cc1cc(N/N=C/c2ccco2)c2ccccc2n1 | – | active: 23.8 µM
COc1ccc(C(=O)N/N=C/c2ccc3cccc(OCc4ccccc4)c3n2)cc1 | inactive: 0.559% | –
COc1ccc(NC(=S)N(Cc2ccccn2)Cc2ccccc2Cl)cc1 | – | inconclusive: 23.8 µM [inhibitor, single point]
COc1ccc(CC(=O)Nc2c(C(=O)N3CCN(c4ncccn4)CC3)oc3ccccc23)cc1OC | inactive: -14.3% | –
O=C(/C=C/c1ccccc1)CC(O)(c1ccccc1)C(F)(F)F (centres undefined) | – | inconclusive: 29.9 µM [inhibitor, partial curve]
Cc1cccc(C(=O)NC(CC(=O)O)c2ccc(OC3CCCC3)cc2)c1[N+](=O)[O-] (centres undefined) | – | inconclusive: 37.7 µM [inhibitor, single point]
CCn1cc(CNC(=S)Nc2cccc(Cl)c2C)cn1 | – | inconclusive: 26.7 µM [inhibitor, partial curve]
CCN(CC)c1ccc(/C=C2\C(=O)N(c3nnc(C)c(=O)[nH]3)N=C2C)cc1 | – | inconclusive: 4.23 µM [inhibitor, full curve]
CCCC(=O)Nc1ccc(C(=O)NCc2ccccc2Cl)cc1 | inactive: 0.236% | –
CCc1ccc2c(CN(CC)Cc3nc4ccccc4c(=O)[nH]3)cc(=O)oc2c1 | – | inconclusive: 16.8 µM [inhibitor, partial curve]
O=C(NC(=S)NNC(=O)c1ccccc1[N+](=O)[O-])c1ccc(Br)cc1 | – | inconclusive: 23.8 µM [inhibitor, partial curve]
CCOC(=O)c1sc2cc([N+](=O)[O-])cc(SCC(C)C)c2c1N | – | inconclusive: 26.7 µM [inhibitor, single point]
CCOC(=O)[C@]12CCCC=C1N(CCc1ccc(OC)c(OC)c1)C(=O)[C@H](CC(=O)N1CCSCC1)C2 | inactive: -2.1% | –
Cc1ccc(C)c(N(CC(N)=O)S(C)(=O)=O)c1 | – | active: 26.7 µM
Cc1cccc(C(=O)Nc2nnc(S(=O)(=O)N(C)Cc3ccco3)s2)c1 | – | inconclusive: 26.7 µM [inhibitor, partial curve]
Cc1cc(C)n(C(=O)c2cc3c(s2)CCCC3)n1 | inactive: -10.2% | –
COC(=O)c1c(C(=O)OC)c2ccccn2c1C(=O)c1ccc([N+](=O)[O-])cc1 | inactive: -8.05% | –
Cc1cc(SCC(=O)NCCC2=CCCCC2)nc2ccccc12 | – | inconclusive: 21.2 µM [inhibitor, partial curve]
Cc1ccc(S(=O)c2ccc(NC(=O)C3CC3)cc2C#N)cc1 (centres undefined) | – | active: 10.6 µM

Retrieved one by one from the list above, 6 records:
SMILES | max response, negative = inhibition | Potency
CCN(CC)c1ccc(/C=C2\C(=O)N(c3nnc(C)c(=O)[nH]3)N=C2C)cc1 | – | inconclusive: 4.23 µM [inhibitor, full curve]
CCOC(=O)[C@]12CCCC=C1N(CCc1ccc(OC)c(OC)c1)C(=O)[C@H](CC(=O)N1CCSCC1)C2 | inactive: -2.1% | –
Cc1cc(SCC(=O)NCCC2=CCCCC2)nc2ccccc12 | – | inconclusive: 21.2 µM [inhibitor, partial curve]
Cc1ccccc1N1CCN(C2CCCN(C(=O)CCN3CCCCC3=O)C2)CC1 (centres undefined) | – | inconclusive: 26.7 µM [inhibitor, partial curve]
Cc1cccc(C(=O)NC(CC(=O)O)c2ccc(OC3CCCC3)cc2)c1[N+](=O)[O-] (centres undefined) | – | inconclusive: 37.7 µM [inhibitor, single point]
Cc1cc(N/N=C/c2ccco2)c2ccccc2n1 | – | active: 23.8 µM

Additional records follow:

SMILES | max response, negative = inhibition | Potency
COc1ccccc1-c1nc(S(=O)(=O)c2ccccc2)c(N2CCCCC2)o1 | – | inconclusive: 9.47 µM [inhibitor, partial curve]
Cc1ccc(S(=O)(=O)Nc2ccc3c(c2)C(=O)N([C@@H](C)CO)C[C@@H](C)[C@@H](CN(C)C(=O)NC2CCCCC2)OCCCC[C@H](C)O3)cc1 | inconclusive: -16.2% [inhibitor] | –
O=C(CC1C(=O)NCCN1Cc1ccccc1)NCCCOc1cccnc1 (centres undefined) | inactive: -6.48% | –
COc1ccccc1NC(=O)c1cc(S(=O)(=O)N2CCCCCC2)ccc1F | inactive: -0.0004% | –
COc1cc(OC)cc(-c2nnc(SCc3ccc(C(=O)O)cc3)o2)c1 | – | active: 18.9 µM
COc1ccc2nc(C)cc(SCC(=O)OC(C)C)c2c1 | – | inconclusive: 26.7 µM [inhibitor, partial curve]
Cn1c(-c2ccc(F)cc2)cnc1SCC(=O)N1CCCc2ccccc21 | – | inconclusive: 18.9 µM [inhibitor, partial curve]
CSc1ccc(CN(C)C(=O)c2cc3ccccc3o2)cc1 | inactive: -10.8% | –
CCCOc1ccc(/C=C2/C(=O)ON=C2C)cc1OCC | – | active: 1.68 µM
Cc1cc(C)c(OCCN(C)C)c(Cl)c1 | – | inconclusive: 26.7 µM [inhibitor, single point]
CN(Cc1ccccc1)C(=O)c1[nH]cnc1C(=O)Nc1nccs1 | – | inconclusive: 23.8 µM [inhibitor, single point]
CC(=O)N1CC[n+]2c(-c3ccc(Cl)cc3Cl)csc21 | – | inconclusive: 15 µM [inhibitor, partial curve]
O=C(NNC(=O)c1cc(O)c(O)c(O)c1)NC1CCCCC1 | – | inconclusive: 37.7 µM [inhibitor, single point]
CCN(CC)S(=O)(=O)c1ccc(N2CCOCC2)c(NS(=O)(=O)c2ccc(OC)cc2)c1 | – | inconclusive: 37.7 µM [inhibitor, single point]
C=CCc1cccc(/C=N/NC(=O)c2ccccc2OC)c1O | – | inconclusive: 26.7 µM [inhibitor, partial curve]
CC(C)(C)C1CCc2c(sc3nc(SCC(=O)O)nc(N)c23)C1 (centres undefined) | – | inconclusive: 26.7 µM [inhibitor, partial curve]
CC(C)C#Cc1cnc2c(c1)C(=O)N([C@@H](C)CO)C[C@@H](C)[C@H](CN(C)Cc1cccc(F)c1)O2 | inactive: -13.4% | –
CC(C)(C)c1ccc(C(=O)N2CCCN(C(=O)c3ccc(C(C)(C)C)cc3)CC2)cc1 | inactive: -14.4% | –
C=Cc1c(C)c2cc3[nH]c(cc4nc(cc5nc(cc1[nH]2)C(C)=C5CCC(=O)O)C(CCC(=O)O)=C4C)c(C)c3C=C | – | active: 13.4 µM
Cc1ccccc1CS(=O)(=O)c1ncc(Cl)c(C(=O)Nc2ccc(F)cc2)n1 | – | active: 18.9 µM
N#CC1=C(N)N(c2ccccc2)C(c2cccc([N+](=O)[O-])c2)C1(C#N)C#N (centres undefined) | – | inconclusive: 23.8 µM [inhibitor, partial curve]
O=C(COc1ccc2c(c1)OCO2)Nc1ccccc1C(F)(F)F | inactive: -9.09% | –
Cc1ccc(S(=O)(=O)N2[C@@H](c3ccc4c(c3)OCO4)C(C(=O)O)=C[C@H]2CC2CCCC2)cc1 | – | inconclusive: 29.9 µM [inhibitor, partial curve]
